In PubChem BioAssay AID280 (DTP/NCI, 2004):
The list shows only some results of the screen, not a fair sample: it is rich in T/C values a quarter to a half above the control, in often repeated tests (any T/C) and in doses without a T/C. Further doses and runs are listed elsewhere. T/C is the treated group as % of the vehicle group. Some doses have a count of surviving animals in place of a T/C: the source holds a T/C of zero for them, seemingly a mark for toxic or unscored doses. Some survivor counts are full or nearly so, which does not show that the dose was tolerated: survival well below the control is almost never listed, so the zero probably covers shortened survival too. Survivors were counted at the toxicity check, usually on the fifth day, unless a day is given; later deaths do not show. Schedule codes are those of the source, taken here to give the interval after Q, in days (D) or hours (H), and the number of doses after X. Some doses were run more than once; the results are listed from low to high. Where survival is the endpoint, this PubChem deposit counts one and a half times the control or more as active, and values a quarter to a half above the control carry no call in these data; other NCI protocols may use other cut-offs.

System: nude mice, LOX melanoma ip, survival T/C
Test: NCI In Vivo Anticancer Drug Screen. Data for tumor model Human Amelanotic Melanoma (LOX) (intraperitoneal) in NU/NU BALB/C (nude) mice
Conditions: T/C endpoint: median survival time, schedule: Q04DX003 (ip), higher T/C = longer survival
Procedure: The antitumor activity of compounds was measured in mice bearing transplantable tumors. Survival or tumor size were measured and the results are expressed as the measurement made in the treated group (T) divided by the measurement made in the vehicle treated control group (C). The tumor model used in this assay is Human Amelanotic Melanoma (LOX) (intraperitoneal) in NU/NU BALB/C (nude) mice

[1] = dose: 150.0 mg/kg/injection, vehicle: saline with Tween-80
[2] = dose: 600.0 mg/kg/injection, vehicle: Klucel (hydroxypropylcellulose) (HPC)

With `COc1ccc2c(ccc3oc([N+](=O)[O-])cc32)c1` the T/C (dose: 50.0 mg/kg/injection, vehicle: Klucel (hydroxypropylcellulose) (HPC)) was 132 % of control, the T/C (dose: 72.0 mg/kg/injection, vehicle: Klucel (hydroxypropylcellulose) (HPC)) was 145 % of control and the T/C (dose: 200.0 mg/kg/injection, vehicle: Klucel (hydroxypropylcellulose) (HPC)) was 142 and 145 % of control. For the same molecule, the survivor count (dose: 333.33 mg/kg/injection, vehicle: Klucel (hydroxypropylcellulose) (HPC)) was 6 of 6 on day 10, the survivor count (dose: 555.56 mg/kg/injection, vehicle: Klucel (hydroxypropylcellulose) (HPC)) was 0 of 6 on day 10 and the survivor count (dose: 800.0 mg/kg/injection, vehicle: Klucel (hydroxypropylcellulose) (HPC)) was 5 of 6 on day 10.

In the case of `CCC1(O)C(=O)OCc2c1cc1n(c2=O)Cc2cc3cc(N)ccc3nc2-1` (centres undefined), the survivor count (dose: 30.0 mg/kg/injection, vehicle: suspension in saline) is reported as 0 of 6 on day 10 and the survivor count (dose: 60.0 mg/kg/injection, vehicle: suspension in saline) is reported as 0 of 6 on day 10.

`COc1cc2c(c(OC)c1OC)-c1ccc(OC)c(=O)cc1[C@@H](NC(C)=O)CC2` was tested, and the T/C (dose: 0.13 mg/kg/injection, vehicle: saline) was 131 % of control, the survivor count (dose: 4.0 mg/kg/injection, vehicle: saline) was 1 of 6 on day 10 and the survivor count (dose: 8.0 mg/kg/injection, vehicle: saline) was 0 of 6 on day 10.

With `COc1cc(C2=NCCc3cc4c(cc32)OCO4)cc(OC)c1OC` the survivor count (dose: 300.0 mg/kg/injection, vehicle: saline + alcohol) was 1 of 6 on day 10.

`O=S(=O)(O)c1cc(N=C=S)ccc1/C=C/c1ccc(N=C=S)cc1S(=O)(=O)O` was tested, and the survivor count (dose: 1.88 mg/kg/injection, vehicle: saline) was 6 of 6 on day 10.

With `Cc1ccc(NN=O)nc1` the T/C (dose: 20.0 mg/kg/injection, vehicle: water) was 135 % of control and the T/C (dose: 40.0 mg/kg/injection, vehicle: water) was 139 % of control.

For `C=CCNC(=O)c1ccccc1SC(C)=O`, the T/C [1] was 130 % of control and the survivor count (dose: 600.0 mg/kg/injection, vehicle: saline with Tween-80) was 6 of 6 on day 10.

`CC1OC(O[C@H]2/C=C/C=C/C=C/C=C/C=C/C=C/C=C/[C@H](C)[C@@H](O)[C@@H](C)[C@H](C)OC(=O)C[C@H](O)C[C@H](O)CC[C@@H](O)[C@H](O)C[C@H](O)C[C@]3(O)C[C@H](O)[C@@H](C(=O)O)[C@H](C2)O3)C(O)C(N)C1O` (some centres undefined) was tested, and the survivor count (dose: 50.0 mg/kg/injection, vehicle: saline + Tween-80 + alcohol) was 0 of 6 on day 10, the survivor count (dose: 100.0 mg/kg/injection, vehicle: saline + Tween-80 + alcohol) was 0 of 6 on day 10 and the survivor count (dose: 200.0 mg/kg/injection, vehicle: saline + Tween-80 + alcohol) was 0 of 6 on day 10. The survivor count (dose: 400.0 mg/kg/injection, vehicle: saline + Tween-80 + alcohol) was 0 of 6 on day 10.

For `[CH3][Sn]([CH3])([Cl])[c]1cc[c]([Sn]([CH3])([CH3])[Cl])cc1`, the survivor count (dose: 10.0 mg/kg/injection, vehicle: saline) was 0 of 6 on day 10.

`Nc1n[nH]c2ccccc12` was tested, and the survivor count (dose: 300.0 mg/kg/injection, vehicle: other) was 4 of 6 on day 10, the survivor count (dose: 600.0 mg/kg/injection, vehicle: other) was 3 of 6 on day 10 and the survivor count (dose: 1200.0 mg/kg/injection, vehicle: other) was 0 of 6 on day 10.

For `CC[C@@]1(O)C[C@H](OC2CC(N(C)C)C(OC3CC4OC5CC(=O)C(C)OC5OC4C(C)O3)C(C)O2)c2c(O)c3c(c(O)c2[C@H]1OC1CC(N(C)C)C(O)C(C)O1)C(=O)c1cccc(O)c1C3=O` (some centres undefined), the survivor count (dose: 63.0 micrograms/kg/injection, vehicle: saline) was 6 of 6 on day 10, the survivor count (dose: 125.0 micrograms/kg/injection, vehicle: saline) was 6 of 6 on day 10 and the survivor count (dose: 500.0 micrograms/kg/injection, vehicle: saline) was 4 of 6 on day 10. The survivor count (dose: 1000.0 micrograms/kg/injection, vehicle: saline) was 2 of 6 on day 10 and 4 of 6 on day 10.

`C=CCOc1cc2c(cc1C(C)c1ccc(OC)cc1)OCO2` (centres undefined) was tested, and the T/C [2] was 142 % of control.

For `C=CC1(C)CC(=O)C2(O)C(C)(O1)C(OC(C)=O)C(O)C1C(C)(C)CCC(O)C12C` (centres undefined), the survivor count (dose: 128.0 mg/kg/injection, vehicle: DMSO) was 2 of 6 on day 10.

In the case of `Cc1cccc(OCC(O)CN2CC2)c1` (centres undefined), the T/C (dose: 25.0 mg/kg/injection, vehicle: saline with Tween-80) is reported as 128 % of control, the T/C (dose: 100.0 mg/kg/injection, vehicle: saline with Tween-80) is reported as 128 % of control and the T/C (dose: 200.0 mg/kg/injection, vehicle: saline with Tween-80) is reported as 145 % of control. The survivor count (dose: 400.0 mg/kg/injection, vehicle: saline with Tween-80) was 0 of 6 on day 10 and 1 of 6 on day 10.

With `CC[C@@H](C)[C@H]([C@H](CC(=O)N1CCC[C@@H]1[C@@H](OC)[C@H](C)C(=O)N[C@H](Cc1ccccc1)c1nccs1)OC)N(C)C(=O)[C@H](NC(=O)[C@@H](C(C)C)N(C)C)C(C)C` the T/C (dose: 3.0 micrograms/kg/injection, vehicle: saline + alcohol) was 147 % of control, the T/C (dose: 6.0 micrograms/kg/injection, vehicle: saline + alcohol) was 143 % of control and the T/C (dose: 9.0 micrograms/kg/injection, vehicle: saline + alcohol) was 138 % of control. For the same molecule, the T/C (dose: 15.0 micrograms/kg/injection, vehicle: saline + alcohol) was 129 % of control, the T/C (dose: 26.0 micrograms/kg/injection, vehicle: saline + alcohol) was 130 % of control and the survivor count (dose: 43.0 micrograms/kg/injection, vehicle: saline + alcohol) was 6 of 6 on day 10. For the same molecule, the survivor count (dose: 52.0 micrograms/kg/injection, vehicle: saline + alcohol) was 0 of 6 on day 10.

For `O=C1CN(CCN2CC(=O)N(CN3CCOCC3)C(=O)C2)CC(=O)N1CN1CCOCC1`, the survivor count [1] was 2 of 6 on day 10, the survivor count (dose: 300.0 mg/kg/injection, vehicle: saline with Tween-80) was 2 of 6 on day 10 and the survivor count (dose: 300.0 mg/kg/injection, vehicle: water) was 1 of 6 on day 10. For the same molecule, the survivor count (dose: 600.0 mg/kg/injection, vehicle: water) was 0 of 6 on day 10.

With `NC(CCC(=O)NC(CS)C(=O)NCC(=O)O)C(=O)O` (centres undefined) the T/C (dose: 1200.0 mg/kg/injection, vehicle: saline) was 130 % of control and the survivor count (dose: 2000.0 mg/kg/injection, vehicle: saline) was 5 of 6 on day 10.

With `O=C(Nc1cccc(O)c1)C(Cl)=C(Cl)Cl` the survivor count (dose: 100.0 mg/kg/injection, vehicle: DMSO) was 3 of 6 on day 10.

In the case of `Cn1cc(C2NC(=O)c3ccccc3N2)c2ccccc21` (centres undefined), the T/C (dose: 75.0 mg/kg/injection, vehicle: Klucel (hydroxypropylcellulose) (HPC)) is reported as 135 % of control, the T/C (dose: 150.0 mg/kg/injection, vehicle: Klucel (hydroxypropylcellulose) (HPC)) is reported as 141 % of control and the T/C (dose: 300.0 mg/kg/injection, vehicle: Klucel (hydroxypropylcellulose) (HPC)) is reported as 132 % of control. For the same molecule, the T/C [2] was 141 % of control and the survivor count (dose: 1200.0 mg/kg/injection, vehicle: Klucel (hydroxypropylcellulose) (HPC)) was 3 of 6 on day 10.
